These are yes or no findings as the source states them, for the method shown. Binding seen in cells or lysates may run through a third protein. Here binding means that the protein was enriched with, or labelled near, the bait; the list need not be complete.
B1: Dynamin-1 (protein, UniProt Q05193 1-864)
chain: MGNRGMEDLIPLVNRLQDAFSAIGQNADLDLPQIAVVGGQSAGKSSVLENFVGRDFLPRGSGIVTRRPLVLQLVNATTEYAEFLHCKGKKFTDFEEVRLEIEAETDRVTGTNKGISPVPINLRVYSPHVLNLTLVDLPGMTKVPVGDQPPDIEFQIRDMLMQFVTKENCLILAVSPANSDLANSDALKVAKEVDPQGQRTIGVITKLDLMDEGTDARDVLENKLLPLRRGYIGVVNRSQKDIDGKKDITAALAAERKFFLSHPSYRHLADRMGTPYLQKVLNQQLTNHIRDTLPGLRNKLQSQLLSIEKEVEEYKNFRPDDPARKTKALLQMVQQFAVDFEKRIEGSGDQIDTYELSGGARINRIFHERFPFELVKMEFDEKELRREISYAIKNIHGIRTGLFTPDMAFETIVKKQVKKIREPCLKCVDMVISELISTVRQCTKKLQQYPRLREEMERIVTTHIREREGRTKEQVMLLIDIELAYMNTNHEDFIGFANAQQRSNQMNKKKTSGNQDEILVIRKGWLTINNIGIMKGGSKEYWFVLTAENLSWYKDDEEKEKKYMLSVDNLKLRDVEKGFMSSKHIFALFNTEQRNVYKDYRQLELACETQEEVDSWKASFLRAGVYPERVGDKEKASETEENGSDSFMHSMDPQLERQVETIRNLVDSYMAIVNKTVRDLMPKTIMHLMINNTKEFIFSELLANLYSCGDQNTLMEESAEQAQRRDEMLRMYHALKEALSIIGDINTTTVSTPMPPPVDDSWLQVQSVPAGRRSPTSSPTPQRRAPAVPPARPGSRGPAPGPPPAGSALGGAPPVPSRPGASPDPFGPPPQVPSRPNRAPPGVPSRSGQASPSRPESPRPPFDL
B2: Neuronal membrane glycoprotein M6-a (protein, UniProt P51674 1-278)
chain: MEENMEEGQTQKGCFECCIKCLGGIPYASLIATILLYAGVALFCGCGHEALSGTVNILQTYFEMARTAGDTLDVFTMIDIFKYVIYGIAAAFFVYGILLMVEGFFTTGAIKDLYGDFKITTCGRCVSAWFIMLTYLFMLAWLGVTAFTSLPVYMYFNLWTICRNTTLVEGANLCLDLRQFGIVTIGEEKKICTVSENFLRMCESTELNMTFHLFIVALAGAGAAVIAMVHYLMVLSANWAYVKDACRMQKYEDIKSKEEQELHDIHSTRSKERLNAYT
B3: Heat shock 70 kDa protein 12A (protein, UniProt O43301 1-675)
chain: MADKEAGGSDGPRETAPTSAYSSPARSLGDTGITPLSPSHIVNDTDSNVSEQQSFLVVVAVDFGTTSSGYAYSFTKEPECIHVMRRWEGGDPGVSNQKTPTTILLTPERKFHSFGYAARDFYHDLDPNEAKQWLYLEKFKMKLHTTGDLTMDTDLTAANGKKVKALEIFAYALQYFKEQALKELSDQAGSEFENSDVRWVITVPAIWKQPAKQFMRQAAYQAGLASPENSEQLIIALEPEAASIYCRKLRLHQMIELSSKAAVNGYSGSDTVGAGFTQAKEHIRRNRQSRTFLVENVIGEIWSELEEGDKYVVVDSGGGTVDLTVHQIRLPEGHLKELYKATGGPYGSLGVDYEFEKLLYKIFGEDFIEQFKIKRPAAWVDLMIAFESRKRAAAPDRTNPLNITLPFSFIDYYKKFRGHSVEHALRKSNVDFVKWSSQGMLRMSPDAMNALFKPTIDSIIEHLRDLFQKPEVSTVKFLFLVGGFAEAPLLQQAVQAAFGDQCRIIIPQDVGLTILKGAVLFGLDPAVIKVRRSPLTYGVGVLNRYVEGKHPPEKLLVKDGTRWCTDVFDKFISADQSVALGELVKRSYTPAKPSQLVIVINIYSSEHDNVSFITDPGVKKCGTLRLDLTGTSGTAVPARREIQTLMQFGDTEIKATAIDIATSKSVKVGIDFLNY
B4: Myosin regulatory light chain 12A (protein, UniProt P19105 1-171)
chain: MSSKRTKTKTKKRPQRATSNVFAMFDQSQIQEFKEAFNMIDQNRDGFIDKEDLHDMLASLGKNPTDEYLDAMMNEAPGPINFTMFLTMFGEKLNGTDPEDVIRNAFACFDEEATGTIQEDYLRELLTTMGDRFTDEEVDELYREAPIDKKGNFNYIEFTRILKHGAKDKDD
B5: Myelin-oligodendrocyte glycoprotein (protein, UniProt Q16653 30-247)
chain: GQFRVIGPRHPIRALVGDEVELPCRISPGKNATGMEVGWYRPPFSRVVHLYRNGKDQDGDQAPEYRGRTELLKDAIGEGKVTLRIRNVRFSDEGGFTCFFRDHSYQEEAAMELKVEDPFYWVSPGVLVLLAVLPVLLLQITVGLIFLCLQYRLRGKLRAEIENLHRTFDPHFLRVPCWKITLFVIVPVLGPLVALIICYNWLHRRLAGQFLEELRNPF
B6: Myelin proteolipid protein (protein, UniProt P60201 1-277)
chain: MGLLECCARCLVGAPFASLVATGLCFFGVALFCGCGHEALTGTEKLIETYFSKNYQDYEYLINVIHAFQYVIYGTASFFFLYGALLLAEGFYTTGAVRQIFGDYKTTICGKGLSATVTGGQKGRGSRGQHQAHSLERVCHCLGKWLGHPDKFVGITYALTVVWLLVFACSAVPVYIYFNTWTTCQSIAFPSKTSASIGSLCADARMYGVLPWNAFPGKVCGSNLLSICKTAEFQMTFHLFIAAFVGAAATLVSLLTFMIAATYNFAVLKLMGRGTKF
B7: Neurofilament light polypeptide (protein, UniProt P07196 1-543)
chain: MSSFSYEPYYSTSYKRRYVETPRVHISSVRSGYSTARSAYSSYSAPVSSSLSVRRSYSSSSGSLMPSLENLDLSQVAAISNDLKSIRTQEKAQLQDLNDRFASFIERVHELEQQNKVLEAELLVLRQKHSEPSRFRALYEQEIRDLRLAAEDATNEKQALQGEREGLEETLRNLQARYEEEVLSREDAEGRLMEARKGADEAALARAELEKRIDSLMDEISFLKKVHEEEIAELQAQIQYAQISVEMDVTKPDLSAALKDIRAQYEKLAAKNMQNAEEWFKSRFTVLTESAAKNTDAVRAAKDEVSESRRLLKAKTLEIEACRGMNEALEKQLQELEDKQNADISAMQDTINKLENELRTTKSEMARYLKEYQDLLNVKMALDIEIAAYRKLLEGEETRLSFTSVGSITSGYSQSSQVFGRSAYGGLQTSSYLMSTRSFPSYYTSHVQEEQIEVEETIEAAKAEEAKDEPPSEGEAEEEEKDKEEAEEEEAAEEEEAAKEESEEAKEEEEGGEGEEGEETKEAEEEEKKVEGAGEEQAAKKKD
B8: Protein S100-A7 (protein, UniProt P31151 1-101)
chain: MSNTQAERSIIGMIDMFHKYTRRDDKIEKPSLLTMMKENFPNFLSACDKKGTNYLADVFEKKDKNEDKKIDFSEFLSLLGDIATDYHKQSHGAAPCSGGSQ
B9: Protein S100-A8 (protein, UniProt P05109 1-93)
chain: MLTELEKALNSIIDVYHKYSLIKGNFHAVYRDDLKKLLETECPQYIRKKGADVWFKELDINTDGAVNFQEFLILVIKMGVAAHKKSHEESHKE
B10: Protein S100-A9 (protein, UniProt P06702 1-114)
chain: MTCKMSQLERNIETIINTFHQYSVKLGHPDTLNQGEFKELVRKDLQNFLKKENKNEKVIEHIMEDLDTNADKQLSFEEFIMLMARLTWASHEKMHEGDEGPGHHHKPGLGEGTP
B11: Single-stranded DNA-binding protein, mito (protein, UniProt Q04837 17-148)
chain: ESETTTSLVLERSLNRVHLLGRVGQDPVLRQVEGKNPVTIFSLATNEMWRSGDSEVYQLGDVSQKTTWHRISVFRPGLRDVAYQYVKKGSRIYLEGKIDYGEYMDKNNVRRQATTIIADNIIFLSDQTKEKE
B12: Thy-1 membrane glycoprotein (protein, UniProt P04216 20-130)
chain: QKVTSLTACLVDQSLRLDCRHENTSSSPIQYEFSLTRETKKHVLFGTVGVPEHTYRSRTNFTSKYNMKVLYLSAFTSKDEGTYTCALHHSGHSPPISSQNVTVLRDKLVKC

The chains behind the UniProt entries cited, without tags or fusion partners. Residues count along the entry.
UniProt P17787, residues 26-502: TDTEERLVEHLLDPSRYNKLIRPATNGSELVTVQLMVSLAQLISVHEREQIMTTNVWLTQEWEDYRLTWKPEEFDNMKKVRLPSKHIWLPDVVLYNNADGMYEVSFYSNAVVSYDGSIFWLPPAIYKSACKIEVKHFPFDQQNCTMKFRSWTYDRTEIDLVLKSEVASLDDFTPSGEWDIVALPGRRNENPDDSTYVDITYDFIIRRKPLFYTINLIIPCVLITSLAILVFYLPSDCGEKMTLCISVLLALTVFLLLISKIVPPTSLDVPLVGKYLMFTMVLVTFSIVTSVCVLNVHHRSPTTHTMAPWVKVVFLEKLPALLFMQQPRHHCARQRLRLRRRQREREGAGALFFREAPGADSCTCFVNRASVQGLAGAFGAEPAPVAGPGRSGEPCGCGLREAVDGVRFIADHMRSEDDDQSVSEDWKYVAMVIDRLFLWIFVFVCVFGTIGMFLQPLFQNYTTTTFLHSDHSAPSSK

molecular target: Neuronal acetylcholine receptor subunit β2 (human (endogenous in temporal cortex)) (UniProt P17787); assay: affinity purification with mass spectrometry; β2*-nAChRs captured overnight at 4°C on mAb295-coupled M270 Dynabeads from a 0.6% Triton X-100 extract of postmortem human temporal cortex membranes; homogenate cross-linked with 1 mM DSP before extraction; eluted with 0.1 M NH4OH, 1 mM EDTA, pH 10; label-free LC-MS/MS (Orbitrap Elite); 18 samples from tobacco users and non-users, with or without a mood disorder

Row | Binder | binding
1 | B1 | binds
2 | B2 | binds
3 | B3 | binds
4 | B4 | binds
5 | B5 | binds
6 | B6 | binds
7 | B7 | binds
8 | B8 | binds
9 | B9 | binds
10 | B10 | binds
11 | B11 | binds
12 | B12 | binds

Source: PMC4985585
